SMILES strings stand for the structures.

The test system of assay [1] is HeLa. As to the kind of experiment: Antiproliferative activity against human HeLa cells after 4 days by coulter counter analysis. The format is functional, cell-based. The note with it: 96 h.
The nature of assay [2]: Antiproliferative activity against HMEC1 after 4 days by coulter counter analysis. The format is functional. The note with it: Homo sapiens, HMEC-1, 96 h.
Assay [3] concerns CCRF-CEM. Kind of assay: Antiproliferative activity against human CEM cells after 48 to 96 hrs by coulter counter analysis. The format is functional, cell-based.

For the compound `COc1cc2c(c(OC)c1OC)-c1ccc(OC)c(=O)cc1[C@@H](NC(C)=O)CC2` [COLCHICINE], the IC50 in assay [1] is 8.7 nM; in assay [2], 3.8 nM; in assay [3], 13 nM.
